Measured values taken from patent publication US20260276625A1, “SCREENING METHOD FOR COMPOUND INDUCING AUTOPHAGY” (TOHOKU UNIVERSITY, priority 2023, published 2026).
Some of these results come from one statement about several compounds together. At least one compound was matched to its structure with a doubt left.

By UniProt entry, the sequences of proteins in these tests, tags left out. Where a name states a change or a piece, a line headed by the entry shows the natural chain unless it says otherwise.
UniProt P17844: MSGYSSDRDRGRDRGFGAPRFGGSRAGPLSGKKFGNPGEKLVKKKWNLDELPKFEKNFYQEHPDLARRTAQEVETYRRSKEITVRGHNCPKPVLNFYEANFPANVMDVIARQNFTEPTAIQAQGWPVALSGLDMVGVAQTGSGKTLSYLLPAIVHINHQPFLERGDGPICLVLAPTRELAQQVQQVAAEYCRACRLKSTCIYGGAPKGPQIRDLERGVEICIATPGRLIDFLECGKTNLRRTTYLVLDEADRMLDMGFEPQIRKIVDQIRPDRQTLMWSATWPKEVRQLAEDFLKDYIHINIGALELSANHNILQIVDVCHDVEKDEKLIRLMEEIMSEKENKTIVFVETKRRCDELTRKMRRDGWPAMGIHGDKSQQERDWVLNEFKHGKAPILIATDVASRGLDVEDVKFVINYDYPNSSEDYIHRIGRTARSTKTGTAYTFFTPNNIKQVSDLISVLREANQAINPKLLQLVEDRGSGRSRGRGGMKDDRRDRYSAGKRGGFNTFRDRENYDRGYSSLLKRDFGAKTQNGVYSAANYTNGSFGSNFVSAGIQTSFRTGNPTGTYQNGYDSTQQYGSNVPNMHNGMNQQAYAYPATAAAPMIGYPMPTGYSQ

Legend:
[1] = target: T1, interaction between DDX5 and p62 (Homo sapiens, UniProt P17844); assay: NanoBiT assay of interaction (proximity) between DDX5 and p62 in HeLa cells transfected with pLgBiT-p62 and pSmBiT-DDX5; format: cell-based; settings: 10 μM; for emission intensity relative to that of cells treated with DMSO: 24 hours treatment, 10 minutes after the start of measurement of luminescence; for emission intensity 10 minutes after the start of measurement of luminescence: mean of three independent experiments, graph capped at 10^7
T1 construct: expressed in transfected cells; host or cells: HeLa

[2] = system: target intracellular molecule; settings: confirmed by the inventors in J Med Chem 2023, 66 (17), 12342-12372; cited from earlier work

Row | Structure (SMILES) | emission intensity relative to that of cells treated with DMSO [1] [times] | emission intensity 10 minutes after the start of measurement of luminescence [1] | induce degradation of a target intracellular molecule by autophagy [2]
1 | Nc1nc2c(nc(/C=C/C(=O)NCCOCCOCCOCCOCCOCCCCCCCl)n2Cc2ccc(F)cc2)c(=O)[nH]1 [Compound 25] | ≥ 1000 | ≥ 10^7 | induce degradation of a target intracellular molecule by autophagy
2 | Nc1nc2c(nc(-c3cccc(OCCOCCOCCOCCOCCOCCCCCCCl)c3)n2Cc2ccc(F)cc2)c(=O)[nH]1 [Compound 30] | ≥ 1000 | ≥ 10^7 | induce degradation of a target intracellular molecule by autophagy
3 | CC(=O)NC(CSc1nc2c(=O)[nH]c(N)nc2n1Cc1ccc(C)cc1)C(=O)NCCOCCOCCOCCOCCOCCCCCCCl (stereo not drawn) [Compound 7] | ≥ 1000 | ≥ 10^7 | induce degradation of a target intracellular molecule by autophagy
4 | CC(=O)NC(CSc1nc2c(=O)[nH]c(N)nc2n1Cc1cnn(C)c1)C(=O)NCCOCCOCCOCCOCCOCCCCCCCl (stereo not drawn) [Compound 14] | ≥ 1000 | ≥ 10^7 | induce degradation of a target intracellular molecule by autophagy
